The results in this text go back to article PMC4747346, “Interaction of RECQ4 and MCM10 is important for efficient DNA replication origin firing in human cells” (Oncotarget, 2015).

These are yes or no findings as the source states them, for the method shown. For some of these results: Binding seen in cells or lysates may run through a third protein. Some results given as binding are weak or reduced against the parent protein; the word gives no strength. Where a sequence is shown, tags or fusion partners need not be part of it.

In assay [1] the target is T1, GST-MCM10 (human) (UniProt Q7L590).
T1 sequence: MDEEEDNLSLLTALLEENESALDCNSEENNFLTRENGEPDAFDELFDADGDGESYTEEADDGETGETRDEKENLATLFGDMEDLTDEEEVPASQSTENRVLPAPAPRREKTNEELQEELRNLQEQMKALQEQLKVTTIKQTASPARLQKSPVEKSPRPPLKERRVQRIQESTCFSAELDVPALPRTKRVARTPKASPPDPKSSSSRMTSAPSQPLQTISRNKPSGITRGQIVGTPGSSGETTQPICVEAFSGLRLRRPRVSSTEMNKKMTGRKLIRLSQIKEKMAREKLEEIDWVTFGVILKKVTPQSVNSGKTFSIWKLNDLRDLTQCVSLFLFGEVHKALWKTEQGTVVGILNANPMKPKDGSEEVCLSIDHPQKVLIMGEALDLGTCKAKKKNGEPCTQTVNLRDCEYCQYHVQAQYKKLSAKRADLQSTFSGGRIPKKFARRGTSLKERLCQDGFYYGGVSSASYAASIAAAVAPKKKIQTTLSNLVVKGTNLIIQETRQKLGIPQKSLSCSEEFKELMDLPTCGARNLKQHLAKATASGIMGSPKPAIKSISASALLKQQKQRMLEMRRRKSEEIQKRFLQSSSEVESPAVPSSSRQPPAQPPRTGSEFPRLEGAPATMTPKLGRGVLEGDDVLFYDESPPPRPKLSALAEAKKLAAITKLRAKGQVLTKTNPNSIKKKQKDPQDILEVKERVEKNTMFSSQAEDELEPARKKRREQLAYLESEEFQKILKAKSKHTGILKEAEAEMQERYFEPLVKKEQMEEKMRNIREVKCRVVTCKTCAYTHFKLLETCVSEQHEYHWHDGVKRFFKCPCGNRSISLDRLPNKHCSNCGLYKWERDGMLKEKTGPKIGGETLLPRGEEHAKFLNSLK
Kind of assay: pull-down; GST or GST-MCM10 on GSH beads (about 1 μg) incubated with purified HIS-RECQ4 (about 1 μg) or purified MBP-RECQ4-HIS fragments in YFP pull-down buffer, 1 h at 4°C; immunoblot for RECQ4; both purified. (A western blot detects proteins with antibodies after separation by electrophoresis.)

The target of assay [2] is T2, YFP-RECQ4 (wild type) (human) (UniProt O94761).
T2 sequence: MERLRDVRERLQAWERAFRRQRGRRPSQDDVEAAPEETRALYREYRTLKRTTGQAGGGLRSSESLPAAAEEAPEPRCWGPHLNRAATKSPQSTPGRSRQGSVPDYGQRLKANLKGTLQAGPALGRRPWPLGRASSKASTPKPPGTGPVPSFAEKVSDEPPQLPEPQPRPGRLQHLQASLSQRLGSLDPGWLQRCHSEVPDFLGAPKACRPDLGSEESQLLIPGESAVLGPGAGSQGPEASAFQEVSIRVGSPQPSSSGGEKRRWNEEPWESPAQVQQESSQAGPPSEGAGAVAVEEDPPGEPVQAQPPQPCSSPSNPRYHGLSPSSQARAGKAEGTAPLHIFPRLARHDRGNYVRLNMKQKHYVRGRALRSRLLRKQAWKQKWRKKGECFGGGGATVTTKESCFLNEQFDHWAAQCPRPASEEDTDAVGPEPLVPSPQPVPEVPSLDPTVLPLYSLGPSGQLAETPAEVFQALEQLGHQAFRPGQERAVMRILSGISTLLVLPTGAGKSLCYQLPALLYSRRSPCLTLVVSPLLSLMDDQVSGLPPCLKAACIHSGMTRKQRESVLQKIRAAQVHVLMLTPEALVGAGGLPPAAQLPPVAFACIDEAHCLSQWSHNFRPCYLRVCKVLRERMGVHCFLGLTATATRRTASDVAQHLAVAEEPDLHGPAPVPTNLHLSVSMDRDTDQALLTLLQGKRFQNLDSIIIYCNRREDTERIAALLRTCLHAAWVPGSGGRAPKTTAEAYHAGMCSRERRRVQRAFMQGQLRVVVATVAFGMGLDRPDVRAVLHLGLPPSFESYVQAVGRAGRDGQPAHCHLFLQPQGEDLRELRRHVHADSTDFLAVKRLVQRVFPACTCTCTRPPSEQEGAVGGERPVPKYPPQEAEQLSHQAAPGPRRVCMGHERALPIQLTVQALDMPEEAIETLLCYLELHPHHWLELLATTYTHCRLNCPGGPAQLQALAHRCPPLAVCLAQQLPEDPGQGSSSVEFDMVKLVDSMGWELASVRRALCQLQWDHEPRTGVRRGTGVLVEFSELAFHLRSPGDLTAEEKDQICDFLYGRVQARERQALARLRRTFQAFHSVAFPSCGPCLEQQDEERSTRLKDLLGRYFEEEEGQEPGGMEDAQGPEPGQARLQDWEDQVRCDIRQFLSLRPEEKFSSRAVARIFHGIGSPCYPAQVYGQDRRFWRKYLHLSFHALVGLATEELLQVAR
The assay is described as follows: co-IP; YFP proteins precipitated with GFP-Trap beads from lysates of transiently transfected U2OS cells (asynchronous, hydroxyurea-arrested, HU-released or nocodazole-arrested); pull-down buffer 10 mM Tris pH 7.5, 200 mM KCl, 10% glycerol, 2 mM MgCl2, 0.5 mM DTT, 0.5% NP-40, benzonase; 2 h at 4°C; immunoblot.

Assay [3] has as its target T1, GST-MCM10 (human). The assay is described as follows: pull-down; GST or GST-MCM10 on GSH beads incubated with bacterial cell lysates expressing His-tagged RECQ4 domains (FL or ID2); washed with YFP pull-down buffer; immunoblot; only the target purified.

B1: MBP-RECQ4 1-400-HIS (domain or fragment, UniProt O94761 1-400)
chain: MERLRDVRERLQAWERAFRRQRGRRPSQDDVEAAPEETRALYREYRTLKRTTGQAGGGLRSSESLPAAAEEAPEPRCWGPHLNRAATKSPQSTPGRSRQGSVPDYGQRLKANLKGTLQAGPALGRRPWPLGRASSKASTPKPPGTGPVPSFAEKVSDEPPQLPEPQPRPGRLQHLQASLSQRLGSLDPGWLQRCHSEVPDFLGAPKACRPDLGSEESQLLIPGESAVLGPGAGSQGPEASAFQEVSIRVGSPQPSSSGGEKRRWNEEPWESPAQVQQESSQAGPPSEGAGAVAVEEDPPGEPVQAQPPQPCSSPSNPRYHGLSPSSQARAGKAEGTAPLHIFPRLARHDRGNYVRLNMKQKHYVRGRALRSRLLRKQAWKQKWRKKGECFGGGGATVTTK
In the case of B1, the binding result in the assay with GST-MCM10 (human) [1] was “binds”.

B2: GST-MCM10 (natural protein, human, UniProt Q7L590 1-875, looked up)
chain: T1 sequence
notes: MCM10, human; construct pGEX-4T-1-MCM10, a gift from Dr. Yilun Liu; also called G-M10; pGEX-4T-1-MCM10; source: E. coli, purified on GSH beads (kept on the beads for pull-downs; eluted with reduced glutathione for the peptide array)
On to B2, for which the binding result in assay [2] is “binds”.

B3: His-tagged RECQ4 FL fragment (RECQ4-MCM10 FL, amino acids 76-145) (domain or fragment, UniProt O94761 76-145)
chain: RCWGPHLNRAATKSPQSTPGRSRQGSVPDYGQRLKANLKGTLQAGPALGRRPWPLGRASSKASTPKPPGT
Consider B3, for which the binding result with GST-MCM10 (human) [3] was “binds”.

Turning to YGQRLKANLKGTLQAGPALGRRPWPLGRASSKASTPKPPGT (domain or fragment, UniProt O94761 105-145) [His-tagged RECQ4 ID2 fragment (RECQ4-MCM10 ID2 domain, amino acids 105-145)], the binding entry in the assay with GST-MCM10 (human) [3] is recorded as “no binding”.
